Data from paper PMC5564443.

Sequences of proteins named here, by UniProt entry; tags and fusion partners are left off.
UniProt Q9R190: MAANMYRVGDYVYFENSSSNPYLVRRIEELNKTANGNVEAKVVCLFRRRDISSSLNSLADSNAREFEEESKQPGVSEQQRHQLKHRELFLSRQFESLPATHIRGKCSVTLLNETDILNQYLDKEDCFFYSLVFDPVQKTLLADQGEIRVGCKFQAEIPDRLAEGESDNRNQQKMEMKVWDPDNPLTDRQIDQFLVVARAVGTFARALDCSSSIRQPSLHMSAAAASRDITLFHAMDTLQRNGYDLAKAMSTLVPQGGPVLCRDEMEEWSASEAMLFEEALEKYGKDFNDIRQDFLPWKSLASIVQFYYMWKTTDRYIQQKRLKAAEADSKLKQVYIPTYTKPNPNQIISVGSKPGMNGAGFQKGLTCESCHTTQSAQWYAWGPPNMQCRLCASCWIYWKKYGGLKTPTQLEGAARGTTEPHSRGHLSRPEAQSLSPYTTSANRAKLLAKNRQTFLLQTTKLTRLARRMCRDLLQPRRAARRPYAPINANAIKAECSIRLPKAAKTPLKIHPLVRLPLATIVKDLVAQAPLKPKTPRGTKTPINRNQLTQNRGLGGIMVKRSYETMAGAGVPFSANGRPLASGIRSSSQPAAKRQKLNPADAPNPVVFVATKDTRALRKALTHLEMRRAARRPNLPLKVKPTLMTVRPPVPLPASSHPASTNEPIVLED
UniProt O09106: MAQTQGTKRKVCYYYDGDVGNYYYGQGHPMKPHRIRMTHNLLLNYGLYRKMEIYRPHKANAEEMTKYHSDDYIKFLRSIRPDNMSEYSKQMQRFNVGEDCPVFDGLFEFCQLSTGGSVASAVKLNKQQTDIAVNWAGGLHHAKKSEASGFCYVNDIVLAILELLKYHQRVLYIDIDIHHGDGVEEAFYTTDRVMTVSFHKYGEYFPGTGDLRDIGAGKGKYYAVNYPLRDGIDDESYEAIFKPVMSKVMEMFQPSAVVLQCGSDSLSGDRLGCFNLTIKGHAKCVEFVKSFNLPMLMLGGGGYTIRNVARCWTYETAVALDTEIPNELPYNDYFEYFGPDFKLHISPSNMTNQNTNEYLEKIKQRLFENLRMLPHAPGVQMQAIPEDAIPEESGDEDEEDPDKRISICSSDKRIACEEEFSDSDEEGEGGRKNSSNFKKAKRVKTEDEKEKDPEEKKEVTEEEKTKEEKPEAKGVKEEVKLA
UniProt Q924K8: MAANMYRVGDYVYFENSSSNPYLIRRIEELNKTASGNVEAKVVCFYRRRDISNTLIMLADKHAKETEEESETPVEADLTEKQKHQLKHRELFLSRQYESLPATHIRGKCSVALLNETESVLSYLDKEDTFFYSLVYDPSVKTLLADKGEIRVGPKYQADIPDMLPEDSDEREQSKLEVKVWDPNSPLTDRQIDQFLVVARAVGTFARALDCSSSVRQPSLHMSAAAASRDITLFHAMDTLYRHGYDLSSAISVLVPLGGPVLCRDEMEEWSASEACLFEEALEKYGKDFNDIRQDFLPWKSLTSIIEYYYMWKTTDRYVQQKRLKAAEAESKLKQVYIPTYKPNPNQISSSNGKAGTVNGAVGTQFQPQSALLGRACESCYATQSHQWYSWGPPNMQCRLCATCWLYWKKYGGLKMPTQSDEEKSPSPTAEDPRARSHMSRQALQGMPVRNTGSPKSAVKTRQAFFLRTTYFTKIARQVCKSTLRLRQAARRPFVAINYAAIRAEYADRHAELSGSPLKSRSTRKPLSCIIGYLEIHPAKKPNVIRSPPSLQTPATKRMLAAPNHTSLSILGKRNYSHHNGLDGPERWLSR
UniProt Q6PDQ2: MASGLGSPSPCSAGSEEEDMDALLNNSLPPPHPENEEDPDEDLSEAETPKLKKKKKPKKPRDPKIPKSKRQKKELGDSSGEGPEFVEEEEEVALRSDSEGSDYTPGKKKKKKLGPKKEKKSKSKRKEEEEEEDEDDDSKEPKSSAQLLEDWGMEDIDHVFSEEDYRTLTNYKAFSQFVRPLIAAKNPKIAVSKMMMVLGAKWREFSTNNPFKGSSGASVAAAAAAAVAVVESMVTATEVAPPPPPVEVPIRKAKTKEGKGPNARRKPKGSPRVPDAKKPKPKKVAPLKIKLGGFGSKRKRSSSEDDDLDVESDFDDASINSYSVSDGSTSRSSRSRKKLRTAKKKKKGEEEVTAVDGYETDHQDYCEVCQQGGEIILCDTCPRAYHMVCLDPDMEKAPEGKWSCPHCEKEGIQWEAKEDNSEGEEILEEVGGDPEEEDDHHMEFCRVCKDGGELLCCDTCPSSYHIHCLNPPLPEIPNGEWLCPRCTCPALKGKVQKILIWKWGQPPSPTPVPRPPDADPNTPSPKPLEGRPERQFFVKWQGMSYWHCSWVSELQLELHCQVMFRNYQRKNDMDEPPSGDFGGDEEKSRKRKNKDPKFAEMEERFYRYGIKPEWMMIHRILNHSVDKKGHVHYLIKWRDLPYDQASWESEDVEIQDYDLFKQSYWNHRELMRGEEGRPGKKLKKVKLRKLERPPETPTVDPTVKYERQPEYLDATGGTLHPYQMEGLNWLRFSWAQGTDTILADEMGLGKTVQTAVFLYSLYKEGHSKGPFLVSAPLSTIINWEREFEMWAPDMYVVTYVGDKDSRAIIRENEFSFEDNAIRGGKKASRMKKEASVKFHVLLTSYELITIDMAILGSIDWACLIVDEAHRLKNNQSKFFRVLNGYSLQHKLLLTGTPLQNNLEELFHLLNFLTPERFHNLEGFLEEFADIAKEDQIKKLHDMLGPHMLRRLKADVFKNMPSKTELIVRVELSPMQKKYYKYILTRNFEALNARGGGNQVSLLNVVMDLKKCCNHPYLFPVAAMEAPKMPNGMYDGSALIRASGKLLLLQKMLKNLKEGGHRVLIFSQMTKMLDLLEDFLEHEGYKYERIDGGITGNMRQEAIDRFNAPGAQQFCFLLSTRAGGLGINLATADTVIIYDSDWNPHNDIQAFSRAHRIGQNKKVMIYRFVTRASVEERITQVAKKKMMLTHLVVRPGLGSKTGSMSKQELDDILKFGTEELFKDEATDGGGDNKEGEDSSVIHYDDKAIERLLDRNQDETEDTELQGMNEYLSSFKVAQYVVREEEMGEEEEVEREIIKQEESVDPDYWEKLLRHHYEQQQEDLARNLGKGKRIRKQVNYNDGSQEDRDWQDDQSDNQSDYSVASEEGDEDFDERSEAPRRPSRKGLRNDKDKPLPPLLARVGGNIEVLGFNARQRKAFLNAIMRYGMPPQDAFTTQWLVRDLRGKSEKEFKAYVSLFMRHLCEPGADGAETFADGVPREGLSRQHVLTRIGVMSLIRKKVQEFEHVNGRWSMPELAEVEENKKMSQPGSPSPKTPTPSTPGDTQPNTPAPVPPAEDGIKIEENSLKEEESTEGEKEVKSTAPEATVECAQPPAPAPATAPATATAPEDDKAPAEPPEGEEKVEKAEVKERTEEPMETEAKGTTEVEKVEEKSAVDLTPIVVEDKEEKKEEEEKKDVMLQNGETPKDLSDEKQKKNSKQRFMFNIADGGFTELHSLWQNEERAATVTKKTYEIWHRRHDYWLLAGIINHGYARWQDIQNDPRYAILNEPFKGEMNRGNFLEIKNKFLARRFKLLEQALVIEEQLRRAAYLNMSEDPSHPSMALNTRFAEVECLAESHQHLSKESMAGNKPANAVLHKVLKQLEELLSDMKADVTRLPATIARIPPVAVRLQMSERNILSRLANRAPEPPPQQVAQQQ
UniProt Q8VHR5: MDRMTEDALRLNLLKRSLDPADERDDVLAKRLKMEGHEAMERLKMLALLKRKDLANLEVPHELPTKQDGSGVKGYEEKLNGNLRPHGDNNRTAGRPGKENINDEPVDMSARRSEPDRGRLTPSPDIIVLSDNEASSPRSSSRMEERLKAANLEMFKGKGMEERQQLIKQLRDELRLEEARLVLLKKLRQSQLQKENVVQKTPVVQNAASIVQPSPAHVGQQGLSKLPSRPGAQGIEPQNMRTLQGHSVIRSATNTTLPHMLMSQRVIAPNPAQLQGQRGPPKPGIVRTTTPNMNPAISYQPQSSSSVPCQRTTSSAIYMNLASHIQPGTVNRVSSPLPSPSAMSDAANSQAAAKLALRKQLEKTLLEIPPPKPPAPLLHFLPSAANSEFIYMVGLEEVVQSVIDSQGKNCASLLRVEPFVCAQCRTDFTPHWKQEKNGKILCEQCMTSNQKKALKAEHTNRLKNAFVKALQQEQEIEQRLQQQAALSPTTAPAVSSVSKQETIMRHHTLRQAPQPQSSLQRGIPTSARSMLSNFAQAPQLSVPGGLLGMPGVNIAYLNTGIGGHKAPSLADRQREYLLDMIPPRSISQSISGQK
UniProt Q8K4B0: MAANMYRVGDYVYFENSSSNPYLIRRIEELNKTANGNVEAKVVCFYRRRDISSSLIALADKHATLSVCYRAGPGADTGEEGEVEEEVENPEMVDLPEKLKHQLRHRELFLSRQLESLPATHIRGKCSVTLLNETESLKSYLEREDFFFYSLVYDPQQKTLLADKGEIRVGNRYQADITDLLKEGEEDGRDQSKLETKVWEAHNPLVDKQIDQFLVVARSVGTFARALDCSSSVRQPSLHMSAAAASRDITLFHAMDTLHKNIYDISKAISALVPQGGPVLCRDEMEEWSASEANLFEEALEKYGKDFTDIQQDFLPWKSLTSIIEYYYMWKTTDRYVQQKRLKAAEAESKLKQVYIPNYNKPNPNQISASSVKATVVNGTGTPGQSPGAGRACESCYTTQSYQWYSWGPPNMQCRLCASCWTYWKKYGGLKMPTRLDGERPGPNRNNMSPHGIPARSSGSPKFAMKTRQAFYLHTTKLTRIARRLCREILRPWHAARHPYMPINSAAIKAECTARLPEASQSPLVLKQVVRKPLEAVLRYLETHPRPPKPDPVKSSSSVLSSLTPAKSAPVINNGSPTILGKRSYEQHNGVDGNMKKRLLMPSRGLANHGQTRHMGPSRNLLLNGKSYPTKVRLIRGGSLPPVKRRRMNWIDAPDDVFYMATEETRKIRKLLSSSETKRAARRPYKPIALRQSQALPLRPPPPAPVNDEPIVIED
UniProt P70288: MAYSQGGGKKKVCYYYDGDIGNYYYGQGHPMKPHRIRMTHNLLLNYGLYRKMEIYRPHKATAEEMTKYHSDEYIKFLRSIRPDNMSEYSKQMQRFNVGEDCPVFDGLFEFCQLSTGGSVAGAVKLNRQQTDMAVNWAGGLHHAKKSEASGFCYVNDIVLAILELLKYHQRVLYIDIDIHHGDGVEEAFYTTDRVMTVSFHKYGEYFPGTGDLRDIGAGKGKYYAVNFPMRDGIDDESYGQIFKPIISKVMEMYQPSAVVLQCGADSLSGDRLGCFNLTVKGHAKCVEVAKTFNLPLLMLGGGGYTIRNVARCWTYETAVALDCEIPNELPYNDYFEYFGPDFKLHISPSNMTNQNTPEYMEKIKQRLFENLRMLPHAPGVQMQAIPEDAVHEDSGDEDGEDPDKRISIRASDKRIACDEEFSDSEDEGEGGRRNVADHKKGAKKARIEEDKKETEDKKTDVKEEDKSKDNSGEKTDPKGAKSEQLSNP

B1: Cdk2ap1 (protein, UniProt O35207 1-114)
chain: MSYKPNLTAHMPAAALNAGSVHSPSTSMATSSQYRQLLSDYGPPSLGYTQGTGNSQVPQSKYAELLAIIEELGKEIRPTYAGSKSAMERLKRGIIHARSLVRECLAETERNARS

Each molecule was assayed against Mta2, FLAG-tagged (mouse (endogenous locus in mouse embryonic stem cells)) (UniProt Q9R190) (assay: affinity purification with mass spectrometry; FLAG affinity purification of the tagged bait from mouse embryonic stem cell lysate (M2 anti-FLAG antibody on Protein G magnetic beads, 4 °C, 150 mM NaCl, 0.1% NP-40), competitive elution with 3x FLAG peptide, eluate resolved by blue native PAGE (3-12%), 48 gel slices, LC-MS/MS, protein correlation profiling of migration profiles (ABC-MS)).
With Hdac1 (from UniProt O09106 1-482) the binding was “binds”. With Mta3 (from UniProt Q924K8 1-591) the binding was “binds”. For Chd4 (from UniProt Q6PDQ2 1-1915), the binding was “binds”. For Gatad2b (from UniProt Q8VHR5 1-594), the binding was “binds”. For Mta1 (from UniProt Q8K4B0 1-715), the binding was “binds”. Hdac2 (from UniProt P70288 1-488) was tested, and the binding was “binds”. In the case of B1, the binding is reported as “binds”.

Results are given in words; binding and its absence hold for the method and conditions named. In cells and extracts the contact can be indirect. A yes stands for co-enrichment or nearness to the bait. Other partners may have been found.
